No constants are given. Whether binding was seen depends on the method and setting. Binding seen in cells or lysates may run through a third protein. Some entries that bind do so weakly or less than the wild type.
Tests used:
[1] = target: T1, NIMA-related kinase 2 (NEK2), endogenous (human (endogenous; cells of the co-IP not named, all cells of the paper are human)) (UniProt P51955); experiment: co-IP; NEK2 antibody or NIK antibody (1:50) added to cell lysates overnight at 4 °C, protein A Dynabeads 2 h, washed three times with PBST, western blot; nonspecific IgG as control
T1 sequence: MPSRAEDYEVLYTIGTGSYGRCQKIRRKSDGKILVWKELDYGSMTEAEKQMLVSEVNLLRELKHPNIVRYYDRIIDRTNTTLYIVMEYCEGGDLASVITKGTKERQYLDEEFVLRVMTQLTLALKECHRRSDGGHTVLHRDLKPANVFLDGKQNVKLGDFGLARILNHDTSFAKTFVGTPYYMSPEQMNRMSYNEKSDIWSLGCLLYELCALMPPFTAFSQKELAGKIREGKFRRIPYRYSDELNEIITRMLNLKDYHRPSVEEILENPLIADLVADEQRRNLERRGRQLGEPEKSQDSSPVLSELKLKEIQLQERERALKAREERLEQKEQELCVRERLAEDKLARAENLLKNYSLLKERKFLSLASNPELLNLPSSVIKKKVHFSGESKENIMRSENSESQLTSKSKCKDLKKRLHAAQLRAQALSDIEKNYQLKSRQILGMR

Sequences of proteins named here, by UniProt entry; tags and fusion partners are left off.
UniProt Q99558: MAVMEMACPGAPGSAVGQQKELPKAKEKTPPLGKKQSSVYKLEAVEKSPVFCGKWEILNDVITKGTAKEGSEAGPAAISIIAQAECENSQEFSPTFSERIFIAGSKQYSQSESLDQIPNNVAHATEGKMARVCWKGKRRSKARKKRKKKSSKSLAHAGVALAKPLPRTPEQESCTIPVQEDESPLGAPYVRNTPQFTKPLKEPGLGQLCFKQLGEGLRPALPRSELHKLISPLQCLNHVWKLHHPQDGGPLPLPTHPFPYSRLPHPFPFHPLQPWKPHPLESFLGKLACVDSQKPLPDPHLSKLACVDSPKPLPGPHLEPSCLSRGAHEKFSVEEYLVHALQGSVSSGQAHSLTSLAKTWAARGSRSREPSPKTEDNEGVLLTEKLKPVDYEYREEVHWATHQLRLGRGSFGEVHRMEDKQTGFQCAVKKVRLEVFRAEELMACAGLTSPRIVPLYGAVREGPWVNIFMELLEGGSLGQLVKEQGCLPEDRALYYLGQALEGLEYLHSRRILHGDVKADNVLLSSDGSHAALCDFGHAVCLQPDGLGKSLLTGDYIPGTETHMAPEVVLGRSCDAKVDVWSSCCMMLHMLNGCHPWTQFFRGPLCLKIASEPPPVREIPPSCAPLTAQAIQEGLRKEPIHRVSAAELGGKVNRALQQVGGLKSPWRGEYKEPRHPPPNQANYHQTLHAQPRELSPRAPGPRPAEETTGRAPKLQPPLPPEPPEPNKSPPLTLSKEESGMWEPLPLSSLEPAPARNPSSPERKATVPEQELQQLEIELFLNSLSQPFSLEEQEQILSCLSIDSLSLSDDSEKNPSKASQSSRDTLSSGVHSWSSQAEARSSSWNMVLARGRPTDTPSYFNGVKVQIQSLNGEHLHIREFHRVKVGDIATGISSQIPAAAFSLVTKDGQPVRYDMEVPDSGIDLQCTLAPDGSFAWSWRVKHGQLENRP

[2] = target: GST-tagged NIK (NF-κB-inducing kinase) (UniProt Q99558); experiment: pull-down; GST-tagged NIK expressed in HEK293T cells with or without NEK2 overexpression; cell lysates incubated with GST beads for 1 h, washed with lysate buffer, western blot
[3] = target: NF-κB-inducing kinase (NIK), endogenous (human (endogenous; cells of the co-IP not named, all cells of the paper are human)) (UniProt Q99558); experiment: co-IP; NEK2 antibody or NIK antibody (1:50) added to cell lysates overnight at 4 °C, protein A Dynabeads 2 h, washed three times with PBST, western blot; nonspecific IgG as control

For “NF-κB-inducing kinase (NIK), endogenous (from UniProt Q99558 1-947)”, the binding [1] was “binds”.

B1: NIMA-related kinase 2 (NEK2), exogenous, overexpressed in HEK293T (protein, UniProt P51955 1-445)
chain: T1 sequence
For B1, the binding [2] was “binds”.

B2: NIMA-related kinase 2 (NEK2), endogenous (protein, UniProt P51955 1-445)
chain: T1 sequence
In the case of B2, the binding [3] is reported as “binds”.

Reference: article PMC8760305
